Assay results reported in PubChem BioAssay AID587 (National Center for Advancing Translational Sciences (NCATS), 2007).
In all, about 59,000 compounds went through this assay and about 35 (0.06%) were called active. The shares of active, inactive and inconclusive entries below differ from those in the screen. No stated cut-off is given here; in the data, active means max dye-equivalent concentration above about 10 nM; inconclusive means between about 1.1 nM and that limit; inactive means weaker than that.

experiment: qHTS Assay for Spectroscopic Profiling in Texas Red Spectral Region; settings: Compound fluorescence, Texas Red channel, 547/618 nm; hits give high values
Source text: NIH Molecular Libraries Screening Centers Network [MLSCN] NIH Chemical Genomics Center [NCGC] […] Occasionally, the artifactual effect may originate from the compound#s own spectral or other biophysical properties which generally tend to track its assay concentration. Pre-screening/profiling the library with respect to the compounds# spectral properties should help one exclude false positives early on. While the most informative fluorescent profiling data set is obtained by performing a full excitation and emission scan of each well by using a monochromator-based plate reader, such an approach is practical only on a very limited scale as scanning each well requires long time. An alternative approach, applied here, is to perform plate reader scans using selected excitation and emission wavelength pairs to generate a multidimensional relational database that correlates compound concentration and the respective relative fluorescence intensity at a given wavelength set. A standard curve of Texas Red (TR) present on each plate as six-point concentration series, was used to compute a normalized fluorescence response, termed dye-equivalent concentration, for each compound at each concentration.
NCGC Assay Protocol Summary: Buffer: 100 mM Tris buffer, pH 8.0 Dye standard plate: The wells in columns 1 through 4 of a Kalypsys polypropylene 1536-well compound plate were filled with standard solutions of fluorophore corresponding to the spectral region of interest. Solutions of TR were placed in the following wells: U1, V1: 3 mM, U2, V2: 300 uM, U3, V3: 30 uM, U4, V4: zero (DMSO), W1, X1: 3 uM, W2, X2: 900 nM, W3, X3: 300 nM, W4, X4: zero (DMSO). Assay Steps: Six uL of buffer were dispensed to 1536-well Greiner black plates. Compounds and dye standards (23 nL) were transferred via Kalypsys PinTool. The plates were incubated for 15 min at room temperature, and then read on ViewLux (Perkin-Elmer) High-throughput CCD imager using 547 nm and 618 nm excitation and emission filter set. Keywords: NIH Roadmap, MLSCN, MLI, MLSMR, qHTS, NCGC, Texas Red, Fluorescent Profiling.

Compound | max dye-equivalent concentration | outcome
CCOC(=O)c1cc2c(=O)n(C)c3ccccc3c2s1 | inconclusive: 2.6 nM | 
O=C1CCCN1c1ccc(S(=O)(=O)N2CCN(c3ccccn3)CC2)cc1 | inconclusive: 1.5 nM | 
COc1cccc(CN(Cc2ccco2)C(c2ccc(F)cc2)c2nnnn2C(C)(C)C)c1 (stereo not drawn) | inconclusive: 1.7 nM | 
CCN1CCC(O)([C@H](C(=O)O)c2ccccc2)CC1 | inactive | 
CN1CCC[C@@H](CC2c3ccccc3Sc3ccccc32)C1 | inconclusive: 1.8 nM | 
CCCc1c(C)c2ccc(OCC(C)=O)cc2oc1=O | inconclusive: 1.2 nM | 
COc1ccc(CC(=O)NCc2ccccc2)cc1S(=O)(=O)N1CCOCC1 | inconclusive: 1.5 nM | 
COc1ccc(N(CC(=O)NC2CCCC2)C(=O)Cn2nnc(-c3ccc(C)cc3)n2)cc1OC | inconclusive: 1.5 nM | 
CC(C)N(Cc1nc(-c2ccccc2)no1)C(=O)c1ccc2c(c1)OCO2 | inconclusive: 1.1 nM | 
Cc1nn(-c2ccccc2)c2c1/C(=N/O)CC(C)(C)C2 | inconclusive: 1.2 nM | 
Cn1cnnc1SCC(=O)Nc1ccccc1Sc1ccccc1 | inconclusive: 2.8 nM | 
CN1CC=C2C(C#N)=C(N)C(C#N)(C#N)[C@H](c3cccc(Cl)c3)C2C1 (stereo partly drawn) | inconclusive: 1.4 nM | 
Cc1c(O)nc(SC2CC(=O)N(c3ccccc3)C2=O)[nH]c1=O (stereo not drawn) | inconclusive: 1.1 nM | 
CCOc1ccc(NC(=O)CN(C)S(=O)(=O)c2cccs2)cc1 | inconclusive: 1.4 nM | 
CC(=O)Oc1cccc(N2C(=O)CC(Nc3ccc(N4CCOCC4)cc3)C2=O)c1 (stereo not drawn) | inconclusive: 1.4 nM | 
CN1CCN2c3ccccc3Cc3ccccc3[C@@H]2C1 | inconclusive: 1.2 nM | inactive
COc1cc(C2C(C#N)=C(C)NC3=C2C(=O)CC(C)(C)C3)ccc1O (stereo not drawn) | inconclusive: 1.6 nM | 
CN1CCN(c2ncc3nc(-c4cccs4)c(=O)n(Cc4ccc(F)cc4)c3n2)CC1 | inconclusive: 1.2 nM | 
Cc1ccccc1-n1c(=O)/c(=C\c2ccco2)s/c1=C(/C#N)C(=O)Nc1ccccc1 | inactive | 
C/C(=C\COc1cc(=O)[nH]c2ccccc12)CC[C@@H](O)C(C)(C)O | inactive | 
O=C(CSC1=NCCS1)Nc1nc2c(s1)CCCC2 | inconclusive: 1.1 nM | 
COc1ccccc1N1CC(O)=C(c2nc3ccccc3s2)C1=N | inconclusive: 1.3 nM | 
Cc1cc(Cc2cc(C)cc(C(C)(C)C)c2O)c(O)c(Cc2cc(C)cc(C(C)(C)C)c2O)c1 | inactive | 
COc1cccc(Nc2ncc3nc(CCc4ccccc4)c(=O)n(Cc4cccs4)c3n2)c1 | inactive | 
COc1cc(CC(=O)OCC(=O)Nc2ncc(Cl)cc2Cl)cc(OC)c1OC | inconclusive: 2.3 nM | 
COc1ccc(CCNC(=O)Cn2cnc3c2c(=O)n(C)c(=O)n3C)cc1OC | inconclusive: 1.8 nM | 

Compound | max dye-equivalent concentration | outcome
CCC(CC)C(=O)Nc1cccc(C(=O)N2CCCCCC2)c1 | inconclusive: 1.4 nM | 
CCOC(=O)c1c(C)oc2c1c(C(c1cccnc1)N1CCN(C)CC1)c(O)c1ccccc12 (stereo not drawn) | inconclusive: 1.2 nM | 
Cc1sc2ccccc2[n+]1CCC(=O)O | inactive | 
N#CC1=C(N)Oc2n[nH]c(-c3cccs3)c2C1c1ccco1 (stereo not drawn) | inconclusive: 2.5 nM | 
O=C(CSc1nc(-c2ccc(F)cc2)cc(C(F)(F)F)n1)NCCN1CCOCC1 | inconclusive: 2.2 nM | 
Cc1cc(C)nc(SCc2nnc(SCC(=O)Nc3nccs3)n2Cc2ccco2)n1 | inconclusive: 1.5 nM | 
COc1cc(-c2nnc(CSc3nnc4nc(C)cc(C)n34)o2)cc(OC)c1OC | inconclusive: 1.1 nM | 
C[C@H]1[C@H](C)CC[C@]2(C(=O)O)CC[C@]3(C)C(=CC[C@@H]4[C@]5(C)C[C@H](O)[C@@H](O)[C@@](C)(CO)[C@@H]5[C@H](O)C[C@@]43C)[C@H]12 | inactive | 
Cn1c(=O)[nH]c(=O)c2c1nc(CN(Cc1ccccc1)Cc1ccccc1)n2CCN1CCOCC1 | inconclusive: 1.1 nM | 
COc1cccc(C(=O)N(Cc2ccc(N(C)C)cc2)C2CCS(=O)(=O)C2)c1 (stereo not drawn) | inconclusive: 1.5 nM | 
O=C1OCCC1Sc1nnc(-c2cccs2)n1Cc1ccccc1 (stereo not drawn) | inconclusive: 2.8 nM | 
C[C@@H](N)/C(N)=N/O | inactive | 
CCc1nc(Nc2ccncc2)c2oc3ccccc3c2n1 | inconclusive: 1.8 nM | 
Cc1ccc2cc3c(NC(=O)C(C)C)nn(C)c3nc2c1 | inconclusive: 1.1 nM | 
CCCn1c(SCC(=O)NCCc2ccccc2)nnc1-c1ccccn1 | inconclusive: 1.1 nM | 
CCOc1ccccc1N1C(=O)CC(Sc2ncccc2C(=O)O)C1=O (stereo not drawn) | inconclusive: 1.7 nM | 
O=c1nc2scc(-c3ccccc3)n2c2ccccc12 | inconclusive: 1.3 nM | 
CCOc1ccc(-n2c(SCC(=O)NCc3ccco3)nc3c(c2=O)SCC3)cc1 | inconclusive: 1.1 nM | 
C[C@@H]1C(=O)O[C@H]2[C@@H](O)[C@@]34[C@H]5C[C@H](C(C)(C)C)[C@@]36[C@H](OC(=O)[C@@H]6O)O[C@@]4(C(=O)O5)[C@@]12O | inactive | 
Nc1nnnn1/N=C/c1ccccc1C(F)(F)F | inconclusive: 1.3 nM | 
N=C1C(c2ccc(Br)cc2)=C(O)C2CCc3ccccc3N12 (stereo not drawn) | inconclusive: 1.9 nM | 
O=C(CNC(=O)c1ccc(Br)o1)Nc1cccc(-c2cnc3ccccc3n2)c1 | inconclusive: 1.4 nM | 
COc1cc(-c2ccc(N=Nc3ccc4c(S(=O)(=O)O)cc(S(=O)(=O)O)c(N)c4c3O)c(OC)c2)ccc1N=Nc1ccc2c(S(=O)(=O)O)cc(S(=O)(=O)O)c(N)c2c1O | inconclusive: 1.5 nM | 
CC(=O)N1CCN(c2ccc(NCc3cccs3)cc2)CC1 | inconclusive: 1.2 nM | 
C=CCn1c(O)c(C(CC)=NCCN2CCOCC2)c(=O)[nH]c1=O | inconclusive: 1.7 nM | 
COC(=O)c1cc(C(=O)OC)n(Cc2ccc(F)cc2)n1 | inconclusive: 1.5 nM | 

Gathered by group: the entries above with a COOH group (four)
Compound | max dye-equivalent concentration | outcome
CCN1CCC(O)([C@H](C(=O)O)c2ccccc2)CC1 | inactive | 
Cc1sc2ccccc2[n+]1CCC(=O)O | inactive | 
C[C@H]1[C@H](C)CC[C@]2(C(=O)O)CC[C@]3(C)C(=CC[C@@H]4[C@]5(C)C[C@H](O)[C@@H](O)[C@@](C)(CO)[C@@H]5[C@H](O)C[C@@]43C)[C@H]12 | inactive | 
CCOc1ccccc1N1C(=O)CC(Sc2ncccc2C(=O)O)C1=O (stereo not drawn) | inconclusive: 1.7 nM | 
